Here are results for 2 molecules from the Biogen ADME set (Fang et al. 2023).

On to `Cc1ccc(-c2ccc(F)cc2COc2ccc(CCC(=O)O)cc2)cc1`, for which the intrinsic clearance, human liver microsomes turned out to be 27.9 mL/min/kg and the intrinsic clearance, rat liver microsomes came to 198 mL/min/kg.

Consider `Cc1n[nH]c2c1[C@H](c1ccccc1)C1=C(CC(C)(C)CC1=O)N2`, for which the MDR1-MDCK efflux ratio was 115; the intrinsic clearance, human liver microsomes stood at 93.3 mL/min/kg; the intrinsic clearance, rat liver microsomes came out at 551 mL/min/kg.
